Test results taken from the supplement of paper PMC8728848.
This is one part of the list.

Assays:
Test in all cases: glycan array binding signal (z-score within array); higher = stronger binding
Settings in all cases: glycan notation: IUPAC condensed, linker removed; mutation: D224N
[1] = target: Gal(b1-3)[Fuc(a1-4)]GlcNAc(b1-3)Gal(b1-4)[Fuc(a1-3)]GlcNAc
Method in brief: (§1)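 Columns mapping to the same glycan were averaged after glycan names were converted to IUPAC-condensed notation. The data come from 3228 arrays in the Consortium for Functional Glycomics database, limited to those with an available protein sequence. Binding is reported as a within-array Z-score averaged across arrays of one protein sequence and across linkers.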

[2] = target: Gal(b1-3)[Fuc(a1-4)]GlcNAc(b1-6)GalNAc
Method in brief: as §1

[3] = target: Gal(b1-3)[GlcNAc(b1-6)]GalNAc
Method in brief: as §1

[4] = target: Gal(b1-3)[Neu5Ac(a2-6)]GalNAc
Method in brief: as §1

[5] = target: Gal(b1-3)[Neu5Ac(a2-6)]GlcNAc(b1-4)Gal(b1-4)Glc
Method in brief: as §1

[6] = target: Gal(b1-3)[Neu5Ac(b2-6)]GalNAc
Method in brief: as §1

Gal(b1-4)Gal = target: Gal(b1-4)Gal
Method in brief: as §1

[7] = target: Gal(b1-4)GalNAc(a1-3)[Fuc(a1-2)]Gal(b1-4)GlcNAc
Method in brief: as §1

[8] = target: Gal(b1-4)GalNAc(b1-3)[Fuc(a1-2)]Gal(b1-4)GlcNAc
Method in brief: as §1

Gal(b1-4)Glc = target: Gal(b1-4)Glc
Method in brief: as §1

Gal(b1-4)Glc6S = target: Gal(b1-4)Glc6S
Method in brief: as §1

Gal(b1-4)GlcNAc = target: Gal(b1-4)GlcNAc
Method in brief: as §1

[9] = target: Gal(b1-4)GlcNAc(a1-6)Gal(b1-4)GlcNAc
Method in brief: as §1

Gal(b1-4)GlcNAc(b1-2)Man = target: Gal(b1-4)GlcNAc(b1-2)Man
Method in brief: as §1

[10] = target: Gal(b1-4)GlcNAc(b1-2)Man(a1-3)Man(b1-4)GlcNAc(b1-4)GlcNAc
Method in brief: as §1

[11] = target: Gal(b1-4)GlcNAc(b1-2)Man(a1-3)[Gal(b1-4)GlcNAc(b1-2)Man(a1-6)]Man(b1-4)GlcNAc(b1-4)GlcNAc
Method in brief: as §1

[12] = target: Gal(b1-4)GlcNAc(b1-2)Man(a1-3)[Gal(b1-4)GlcNAc(b1-2)Man(a1-6)]Man(b1-4)GlcNAc(b1-4)[Fuc(a1-6)]GlcNAc
Method in brief: as §1

[13] = target: Gal(b1-4)GlcNAc(b1-2)Man(a1-3)[Gal(b1-4)GlcNAc(b1-2)Man(a1-6)][Gal(b1-4)GlcNAc(b1-4)]Man(b1-4)GlcNAc(b1-4)[Fuc(a1-6)]GlcNAc
Method in brief: as §1

[14] = target: Gal(b1-4)GlcNAc(b1-2)Man(a1-3)[Gal(b1-4)GlcNAc(b1-2)Man(a1-6)][GlcNAc(b1-4)]Man(b1-4)GlcNAc(b1-4)[Fuc(a1-6)]GlcNAc
Method in brief: as §1

[15] = target: Gal(b1-4)GlcNAc(b1-2)Man(a1-3)[GlcNAc(b1-2)Man(a1-6)]Man(b1-4)GlcNAc(b1-4)GlcNAc
Method in brief: as §1

[16] = target: Gal(b1-4)GlcNAc(b1-2)Man(a1-3)[GlcNAc(b1-4)][Gal(b1-4)GlcNAc(b1-2)Man(a1-6)]Man(b1-4)GlcNAc(b1-4)GlcNAc
Method in brief: as §1

[17] = target: Gal(b1-4)GlcNAc(b1-2)Man(a1-3)[Man(a1-6)]Man(b1-4)GlcNAc(b1-4)GlcNAc
Method in brief: as §1

[18] = target: Gal(b1-4)GlcNAc(b1-2)Man(a1-6)Man(b1-4)GlcNAc(b1-4)GlcNAc
Method in brief: as §1

[19] = target: Gal(b1-4)GlcNAc(b1-2)Man(a1-6)[GlcNAc(b1-2)Man(a1-3)]Man(b1-4)GlcNAc(b1-4)GlcNAc
Method in brief: as §1

[20] = target: Gal(b1-4)GlcNAc(b1-2)Man(a1-6)[Man(a1-3)]Man(b1-4)GlcNAc(b1-4)GlcNAc
Method in brief: as §1

[21] = target: Gal(b1-4)GlcNAc(b1-2)[Gal(b1-4)GlcNAc(b1-4)]Man(a1-3)[Gal(b1-4)GlcNAc(b1-2)Man(a1-6)]Man(b1-4)GlcNAc(b1-4)GlcNAc
Method in brief: as §1

[22] = target: Gal(b1-4)GlcNAc(b1-2)[Gal(b1-4)GlcNAc(b1-4)]Man(a1-3)[Gal(b1-4)GlcNAc(b1-2)[Gal(b1-4)GlcNAc(b1-6)]Man(a1-6)]Man(b1-4)GlcNAc(b1-4)GlcNAc
Method in brief: as §1

[23] = target: Gal(b1-4)GlcNAc(b1-2)[Gal(b1-4)GlcNAc(b1-4)]Man(a1-3)[GlcNAc(b1-4)][Gal(b1-4)GlcNAc(b1-2)Man(a1-6)]Man(b1-4)GlcNAc(b1-4)GlcNAc
Method in brief: as §1

[24] = target: Gal(b1-4)GlcNAc(b1-2)[Gal(b1-4)GlcNAc(b1-4)]Man(a1-3)[GlcNAc(b1-4)][Gal(b1-4)GlcNAc(b1-2)[Gal(b1-4)GlcNAc(b1-6)]Man(a1-6)]Man(b1-4)GlcNAc(b1-4)GlcNAc
Method in brief: as §1

[25] = target: Gal(b1-4)GlcNAc(b1-2)[Gal(b1-4)GlcNAc(b1-6)]Man(a1-6)[Gal(b1-4)GlcNAc(b1-2)Man(a1-3)]Man(b1-4)GlcNAc(b1-4)GlcNAc
Method in brief: as §1

[26] = target: Gal(b1-4)GlcNAc(b1-2)[Gal(b1-4)GlcNAc(b1-6)]Man(a1-6)[Gal(b1-4)GlcNAc(b1-2)Man(a1-3)]Man(b1-4)GlcNAc(b1-4)[Fuc(a1-6)]GlcNAc
Method in brief: as §1

[27] = target: Gal(b1-4)GlcNAc(b1-2)[Gal(b1-4)GlcNAc(b1-6)]Man(a1-6)[GlcNAc(b1-4)][Gal(b1-4)GlcNAc(b1-2)Man(a1-3)]Man(b1-4)GlcNAc(b1-4)GlcNAc
Method in brief: as §1

[28] = target: Gal(b1-4)GlcNAc(b1-2)[Gal(b1-4)GlcNAc(b1-6)]Man(a1-6)[GlcNAc(b1-4)][Gal(b1-4)GlcNAc(b1-2)[Gal(b1-4)GlcNAc(b1-4)]Man(a1-3)]Man(b1-4)GlcNAc(b1-4)[Fuc(a1-6)]GlcNAc
Method in brief: as §1

[29] = target: Gal(b1-4)GlcNAc(b1-3)Gal(b1-3)GalNAc
Method in brief: as §1

[30] = target: Gal(b1-4)GlcNAc(b1-3)Gal(b1-3)GlcNAc
Method in brief: as §1

[31] = target: Gal(b1-4)GlcNAc(b1-3)Gal(b1-4)Glc
Method in brief: as §1

[32] = target: Gal(b1-4)GlcNAc(b1-3)Gal(b1-4)GlcNAc
Method in brief: as §1

[33] = target: Gal(b1-4)GlcNAc(b1-3)Gal(b1-4)GlcNAc(b1-2)Man(a1-3)[Gal(b1-4)GlcNAc(b1-3)Gal(b1-4)GlcNAc(b1-2)Man(a1-6)]Man(b1-4)GlcNAc(b1-4)GlcNAc
Method in brief: as §1

B1: a L Fucosidase (Thermotoga maritima) (protein)
chain: MASMKPRYKPDWESLREHTVPKWFDKAKFGIFIHWGIYSVPGWATPTGELGKVPMDAWFFQNPYAEWYENSLRIKESPTWEYHVKTYGENFEYEKFADLFTAEKWDPQEWADLFKKAGAKYVIPTTKHHDGFCLWGTKYTDFNSVKRGPKRDLVGDLAKAVREAGLRFGVYYSGGLDWRFTTEPIRYPEDLSYIRPNTYEYADYAYKQVMELVDLYLPDVLWNNMGWPEKGKEDLKYLFAYYYNKHPEGSVNDRWGVPHWDFKTAEYHVNYPGDLPGYKWEFTRGIGLSFGYNRNEGPEHMLSVEQLVYTLVDVVSKGGNLLLNVGPKGDGTIPDLQKERLLGLGEWLRKYGDAIYGTSVWERCCAKTEDGTEIRFTRKCNRIFVIFLGIPTGEKIVIEDLNLSAGTVRHFLTGERLSFKNVGKNLEITVPKKLLETDSITLVLEAVEE
glycan array binding signal (z-score) [1]: -0.599
glycan array binding signal (z-score) [2]: -0.164
glycan array binding signal (z-score) [3]: 0.054
glycan array binding signal (z-score) [4]: -0.103
glycan array binding signal (z-score) [5]: -1
glycan array binding signal (z-score) [6]: -0.445
glycan array binding signal (z-score) (Gal(b1-4)Gal): -0.621
glycan array binding signal (z-score) [7]: -0.318
glycan array binding signal (z-score) [8]: -0.269
glycan array binding signal (z-score) (Gal(b1-4)Glc): 0.336
glycan array binding signal (z-score) (Gal(b1-4)Glc6S): 0.376
glycan array binding signal (z-score) (Gal(b1-4)GlcNAc): -0.016
glycan array binding signal (z-score) [9]: -1.19
glycan array binding signal (z-score) (Gal(b1-4)GlcNAc(b1-2)Man): 0.466
glycan array binding signal (z-score) [10]: -1.08
glycan array binding signal (z-score) [11]: -0.816
glycan array binding signal (z-score) [12]: -0.322
glycan array binding signal (z-score) [13]: -0.947
glycan array binding signal (z-score) [14]: -0.424
glycan array binding signal (z-score) [15]: -0.47
glycan array binding signal (z-score) [16]: 0.163
glycan array binding signal (z-score) [17]: -0.138
glycan array binding signal (z-score) [18]: -0.592
glycan array binding signal (z-score) [19]: -0.419
glycan array binding signal (z-score) [20]: 0.706
glycan array binding signal (z-score) [21]: -0.104
glycan array binding signal (z-score) [22]: -0.489
glycan array binding signal (z-score) [23]: -0.235
glycan array binding signal (z-score) [24]: -0.054
glycan array binding signal (z-score) [25]: -0.36
glycan array binding signal (z-score) [26]: 0.859
glycan array binding signal (z-score) [27]: -0.343
glycan array binding signal (z-score) [28]: -0.733
glycan array binding signal (z-score) [29]: -0.636
glycan array binding signal (z-score) [30]: -0.489
glycan array binding signal (z-score) [31]: -0.682
glycan array binding signal (z-score) [32]: -0.267
glycan array binding signal (z-score) [33]: 0.428
